In paper PMC6234029 one finds binding data, which are given here for five substances.

Sequences of proteins named here, by UniProt entry; tags and fusion partners are left off.
UniProt P41229: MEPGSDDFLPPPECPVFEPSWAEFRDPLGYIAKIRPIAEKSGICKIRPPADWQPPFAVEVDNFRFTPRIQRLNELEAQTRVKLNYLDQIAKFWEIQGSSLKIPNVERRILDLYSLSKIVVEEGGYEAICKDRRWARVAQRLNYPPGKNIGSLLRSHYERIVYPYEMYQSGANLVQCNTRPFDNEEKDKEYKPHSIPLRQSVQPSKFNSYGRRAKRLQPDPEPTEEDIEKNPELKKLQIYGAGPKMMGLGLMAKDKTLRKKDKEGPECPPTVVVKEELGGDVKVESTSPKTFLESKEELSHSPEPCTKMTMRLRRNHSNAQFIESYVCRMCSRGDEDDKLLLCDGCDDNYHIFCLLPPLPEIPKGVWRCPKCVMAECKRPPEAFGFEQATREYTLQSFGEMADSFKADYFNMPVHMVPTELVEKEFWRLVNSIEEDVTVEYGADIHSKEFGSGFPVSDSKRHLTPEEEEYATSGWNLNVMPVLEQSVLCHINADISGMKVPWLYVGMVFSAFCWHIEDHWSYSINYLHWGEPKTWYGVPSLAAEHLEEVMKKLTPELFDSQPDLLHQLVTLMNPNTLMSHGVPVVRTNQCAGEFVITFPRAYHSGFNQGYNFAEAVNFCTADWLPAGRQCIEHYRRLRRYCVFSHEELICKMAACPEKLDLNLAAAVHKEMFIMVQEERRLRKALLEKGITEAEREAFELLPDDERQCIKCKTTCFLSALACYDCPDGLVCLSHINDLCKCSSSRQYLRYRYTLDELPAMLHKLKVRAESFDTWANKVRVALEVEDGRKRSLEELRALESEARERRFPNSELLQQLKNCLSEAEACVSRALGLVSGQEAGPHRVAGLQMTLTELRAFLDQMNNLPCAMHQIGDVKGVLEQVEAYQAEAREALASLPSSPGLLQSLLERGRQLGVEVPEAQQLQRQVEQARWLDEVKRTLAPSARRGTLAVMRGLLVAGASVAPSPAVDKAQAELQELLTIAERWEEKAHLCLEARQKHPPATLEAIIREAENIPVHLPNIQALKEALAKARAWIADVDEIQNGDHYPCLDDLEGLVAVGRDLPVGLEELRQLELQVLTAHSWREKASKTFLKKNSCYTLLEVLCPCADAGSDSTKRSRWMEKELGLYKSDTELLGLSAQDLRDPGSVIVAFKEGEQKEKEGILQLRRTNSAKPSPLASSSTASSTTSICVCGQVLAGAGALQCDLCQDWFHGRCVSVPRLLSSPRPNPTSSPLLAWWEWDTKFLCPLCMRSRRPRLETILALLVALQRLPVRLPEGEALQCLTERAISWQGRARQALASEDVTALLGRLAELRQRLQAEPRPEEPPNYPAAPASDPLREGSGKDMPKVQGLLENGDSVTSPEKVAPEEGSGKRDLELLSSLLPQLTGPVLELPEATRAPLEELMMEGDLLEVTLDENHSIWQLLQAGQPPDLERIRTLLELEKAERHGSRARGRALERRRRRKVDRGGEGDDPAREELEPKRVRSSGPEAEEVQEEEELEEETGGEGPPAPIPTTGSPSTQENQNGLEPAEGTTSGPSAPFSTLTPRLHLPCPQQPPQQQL
UniProt Q86U86: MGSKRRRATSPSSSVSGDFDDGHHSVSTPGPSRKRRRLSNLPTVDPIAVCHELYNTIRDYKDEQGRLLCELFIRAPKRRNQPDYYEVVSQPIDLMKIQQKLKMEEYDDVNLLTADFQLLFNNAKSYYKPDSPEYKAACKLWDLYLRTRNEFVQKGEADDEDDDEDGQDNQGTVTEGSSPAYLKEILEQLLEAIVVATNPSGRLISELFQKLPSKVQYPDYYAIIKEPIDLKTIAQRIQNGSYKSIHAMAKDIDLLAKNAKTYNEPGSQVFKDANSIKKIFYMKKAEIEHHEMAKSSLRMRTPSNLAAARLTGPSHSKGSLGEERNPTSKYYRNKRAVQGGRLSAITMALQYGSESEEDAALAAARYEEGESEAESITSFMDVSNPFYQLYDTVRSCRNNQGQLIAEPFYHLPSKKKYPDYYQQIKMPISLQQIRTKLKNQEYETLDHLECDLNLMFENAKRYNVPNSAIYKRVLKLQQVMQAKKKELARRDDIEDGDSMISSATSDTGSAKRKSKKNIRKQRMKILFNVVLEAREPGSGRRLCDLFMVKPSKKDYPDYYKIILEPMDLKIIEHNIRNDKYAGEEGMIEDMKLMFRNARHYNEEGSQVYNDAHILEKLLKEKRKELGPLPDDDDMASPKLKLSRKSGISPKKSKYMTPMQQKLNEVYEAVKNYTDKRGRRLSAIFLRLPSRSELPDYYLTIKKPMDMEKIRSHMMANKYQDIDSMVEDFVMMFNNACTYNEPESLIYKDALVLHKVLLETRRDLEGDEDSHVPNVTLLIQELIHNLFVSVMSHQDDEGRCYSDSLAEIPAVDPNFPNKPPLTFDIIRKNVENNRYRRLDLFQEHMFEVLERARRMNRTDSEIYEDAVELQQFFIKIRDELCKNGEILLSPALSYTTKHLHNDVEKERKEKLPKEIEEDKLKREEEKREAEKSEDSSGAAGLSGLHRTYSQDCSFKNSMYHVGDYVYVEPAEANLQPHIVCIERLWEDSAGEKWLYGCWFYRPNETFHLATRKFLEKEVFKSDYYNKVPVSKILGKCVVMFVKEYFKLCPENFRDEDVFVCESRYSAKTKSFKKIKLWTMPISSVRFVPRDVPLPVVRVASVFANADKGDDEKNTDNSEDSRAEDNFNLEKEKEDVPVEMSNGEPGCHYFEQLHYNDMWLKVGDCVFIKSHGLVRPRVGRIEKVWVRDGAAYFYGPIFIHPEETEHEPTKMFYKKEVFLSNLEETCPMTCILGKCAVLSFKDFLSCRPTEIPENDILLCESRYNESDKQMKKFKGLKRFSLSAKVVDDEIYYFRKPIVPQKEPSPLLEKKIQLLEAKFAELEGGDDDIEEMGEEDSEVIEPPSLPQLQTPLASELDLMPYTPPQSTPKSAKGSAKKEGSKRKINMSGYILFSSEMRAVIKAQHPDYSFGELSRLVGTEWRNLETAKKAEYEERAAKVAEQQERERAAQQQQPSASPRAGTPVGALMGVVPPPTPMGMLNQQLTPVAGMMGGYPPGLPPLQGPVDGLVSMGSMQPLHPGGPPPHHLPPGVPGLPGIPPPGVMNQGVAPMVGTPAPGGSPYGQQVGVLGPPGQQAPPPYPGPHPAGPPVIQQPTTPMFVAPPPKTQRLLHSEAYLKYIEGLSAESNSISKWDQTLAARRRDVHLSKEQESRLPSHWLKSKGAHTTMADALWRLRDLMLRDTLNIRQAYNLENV
UniProt Q969G3: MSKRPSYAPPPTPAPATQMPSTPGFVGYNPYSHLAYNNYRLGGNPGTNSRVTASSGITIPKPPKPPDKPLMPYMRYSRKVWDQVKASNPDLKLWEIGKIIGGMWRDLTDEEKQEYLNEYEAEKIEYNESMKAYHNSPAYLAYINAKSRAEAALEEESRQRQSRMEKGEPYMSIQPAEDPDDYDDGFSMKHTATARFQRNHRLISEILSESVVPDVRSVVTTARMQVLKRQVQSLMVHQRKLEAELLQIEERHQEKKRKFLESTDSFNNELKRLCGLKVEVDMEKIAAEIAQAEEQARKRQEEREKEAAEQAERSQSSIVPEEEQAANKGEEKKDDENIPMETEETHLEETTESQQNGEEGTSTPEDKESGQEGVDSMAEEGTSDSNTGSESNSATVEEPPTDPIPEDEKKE
UniProt Q8TAQ2: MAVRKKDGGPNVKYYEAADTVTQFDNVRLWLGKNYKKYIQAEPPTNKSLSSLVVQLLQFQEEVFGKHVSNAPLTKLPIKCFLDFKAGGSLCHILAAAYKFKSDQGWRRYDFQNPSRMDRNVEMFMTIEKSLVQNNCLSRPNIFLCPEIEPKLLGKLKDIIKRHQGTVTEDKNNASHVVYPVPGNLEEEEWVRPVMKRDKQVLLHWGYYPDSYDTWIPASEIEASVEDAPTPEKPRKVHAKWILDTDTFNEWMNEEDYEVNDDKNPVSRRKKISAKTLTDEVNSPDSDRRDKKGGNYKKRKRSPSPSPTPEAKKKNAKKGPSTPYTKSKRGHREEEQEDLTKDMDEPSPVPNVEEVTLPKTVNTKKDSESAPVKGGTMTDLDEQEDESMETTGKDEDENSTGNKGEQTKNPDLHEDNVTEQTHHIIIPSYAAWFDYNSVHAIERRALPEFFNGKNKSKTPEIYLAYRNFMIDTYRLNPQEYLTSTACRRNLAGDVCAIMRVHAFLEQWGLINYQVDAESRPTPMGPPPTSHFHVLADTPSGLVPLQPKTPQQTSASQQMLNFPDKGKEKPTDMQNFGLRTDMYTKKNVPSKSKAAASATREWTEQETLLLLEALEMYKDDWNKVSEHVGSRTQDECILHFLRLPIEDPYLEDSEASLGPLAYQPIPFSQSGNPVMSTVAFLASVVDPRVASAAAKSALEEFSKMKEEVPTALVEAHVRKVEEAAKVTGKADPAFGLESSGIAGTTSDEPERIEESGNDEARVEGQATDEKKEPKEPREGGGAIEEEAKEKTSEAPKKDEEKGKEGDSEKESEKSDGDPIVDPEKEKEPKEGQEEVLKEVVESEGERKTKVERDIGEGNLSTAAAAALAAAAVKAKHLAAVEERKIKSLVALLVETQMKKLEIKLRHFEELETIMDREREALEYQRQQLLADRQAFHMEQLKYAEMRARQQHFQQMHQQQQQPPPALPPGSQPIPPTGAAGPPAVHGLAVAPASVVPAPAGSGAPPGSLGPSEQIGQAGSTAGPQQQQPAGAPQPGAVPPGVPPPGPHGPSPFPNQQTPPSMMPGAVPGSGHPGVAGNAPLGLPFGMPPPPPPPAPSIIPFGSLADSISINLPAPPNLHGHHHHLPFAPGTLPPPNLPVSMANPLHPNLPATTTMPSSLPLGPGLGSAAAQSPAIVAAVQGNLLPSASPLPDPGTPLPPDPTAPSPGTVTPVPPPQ
UniProt P51532: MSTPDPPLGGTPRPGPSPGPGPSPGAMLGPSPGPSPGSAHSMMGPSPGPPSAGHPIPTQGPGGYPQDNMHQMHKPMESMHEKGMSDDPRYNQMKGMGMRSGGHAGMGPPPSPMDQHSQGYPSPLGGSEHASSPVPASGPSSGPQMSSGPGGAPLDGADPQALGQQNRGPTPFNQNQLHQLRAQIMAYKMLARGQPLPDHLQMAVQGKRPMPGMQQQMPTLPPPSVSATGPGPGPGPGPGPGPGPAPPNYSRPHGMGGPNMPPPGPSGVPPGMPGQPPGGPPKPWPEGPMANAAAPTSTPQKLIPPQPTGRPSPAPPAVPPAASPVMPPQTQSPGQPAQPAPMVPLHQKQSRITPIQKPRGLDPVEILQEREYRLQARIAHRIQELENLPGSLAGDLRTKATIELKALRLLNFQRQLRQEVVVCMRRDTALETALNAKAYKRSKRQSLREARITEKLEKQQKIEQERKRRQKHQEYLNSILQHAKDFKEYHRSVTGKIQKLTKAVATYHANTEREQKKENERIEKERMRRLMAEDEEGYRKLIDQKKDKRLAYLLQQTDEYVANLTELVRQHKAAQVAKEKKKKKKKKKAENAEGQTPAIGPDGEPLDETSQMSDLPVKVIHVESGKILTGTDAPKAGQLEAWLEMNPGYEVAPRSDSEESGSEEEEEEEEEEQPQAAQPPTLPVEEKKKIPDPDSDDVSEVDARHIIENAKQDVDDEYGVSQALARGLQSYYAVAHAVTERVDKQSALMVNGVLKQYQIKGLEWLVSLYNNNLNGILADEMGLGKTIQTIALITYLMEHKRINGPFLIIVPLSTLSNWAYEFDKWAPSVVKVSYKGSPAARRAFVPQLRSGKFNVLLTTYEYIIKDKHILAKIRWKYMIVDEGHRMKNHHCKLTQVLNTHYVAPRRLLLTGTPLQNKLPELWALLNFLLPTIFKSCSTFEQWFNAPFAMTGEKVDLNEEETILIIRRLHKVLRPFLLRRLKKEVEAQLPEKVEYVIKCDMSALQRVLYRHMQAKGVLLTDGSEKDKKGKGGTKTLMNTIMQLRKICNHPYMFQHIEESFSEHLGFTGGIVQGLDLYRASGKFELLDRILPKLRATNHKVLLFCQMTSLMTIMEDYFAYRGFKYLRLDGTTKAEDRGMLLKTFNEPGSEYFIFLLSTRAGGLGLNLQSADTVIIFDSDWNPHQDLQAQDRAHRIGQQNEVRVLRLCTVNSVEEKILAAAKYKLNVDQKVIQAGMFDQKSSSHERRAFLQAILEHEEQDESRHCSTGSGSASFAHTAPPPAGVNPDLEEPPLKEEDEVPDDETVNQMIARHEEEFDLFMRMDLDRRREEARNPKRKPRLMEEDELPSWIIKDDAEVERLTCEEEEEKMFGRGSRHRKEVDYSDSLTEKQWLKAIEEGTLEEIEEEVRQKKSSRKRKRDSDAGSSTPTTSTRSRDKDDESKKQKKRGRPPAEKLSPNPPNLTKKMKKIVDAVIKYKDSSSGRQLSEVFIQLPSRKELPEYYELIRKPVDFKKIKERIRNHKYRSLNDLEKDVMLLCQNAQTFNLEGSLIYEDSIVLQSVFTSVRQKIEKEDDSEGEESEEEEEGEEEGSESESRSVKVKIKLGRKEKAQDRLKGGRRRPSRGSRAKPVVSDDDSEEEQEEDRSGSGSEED

Results are given in words; binding and its absence hold for the method and conditions named. Binding seen in cells or lysates may run through a third protein. Some results given as binding are weak or reduced against the parent protein; the word gives no strength.

Assay [1] addresses Flag-KDM5C (human) (human) (UniProt P41229). The assay is described as follows: co-IP; Flag-PBRM1 or Flag-KDM5C transfected into HEK293T cells; EBC lysates; immunoprecipitation, immunoblot of endogenous partners.
For assay [2], the target named is Flag-PBRM1 (human), full-length PBRM1 in p3xFlag-CMV10 (human) (UniProt Q86U86). Described as above.
In assay [3] the target is KDM5C expressed from a plasmid together with PBRM1 (Figure 4A) (human) (UniProt P41229). The assay can be described thus: co-IP; PBRM1 and KDM5C both expressed from plasmids in HEK293T cells; EBC lysates (50 mM Tris pH 8.0, 120 mM NaCl, 0.5% NP-40); immunoprecipitation of either protein, immunoblot. (Immunoblotting shows a protein as a band on a membrane.)

On to BAF57 (from UniProt Q969G3 1-411), for which the binding entry in assay [1] is “no binding”; in assay [2], “binds”.

Take BAF170 (from UniProt Q8TAQ2 1-1214): the binding entry in assay [1] is reported as “binds”.

Take BRG1 (from UniProt P51532 1-1647): in assay [1], the binding result is given as “binds”.

“PBRM1 expressed from a plasmid together with KDM5C (Figure 4A) (from UniProt Q86U86 1-1689)”: the binding result in assay [3] is listed as “binds”.

Turning to “endogenous PBRM1 (from UniProt Q86U86 1-1689)”, the binding entry in assay [1] is given as “binds”.
